In paper PMC11299418:
Results are given in words; binding and its absence hold for the method and conditions named. In cells and extracts the contact can be indirect. Some results given as binding are weak or reduced against the parent protein; the word gives no strength.

Sequences of proteins named here, by UniProt entry; tags and fusion partners are left off.
UniProt P52480: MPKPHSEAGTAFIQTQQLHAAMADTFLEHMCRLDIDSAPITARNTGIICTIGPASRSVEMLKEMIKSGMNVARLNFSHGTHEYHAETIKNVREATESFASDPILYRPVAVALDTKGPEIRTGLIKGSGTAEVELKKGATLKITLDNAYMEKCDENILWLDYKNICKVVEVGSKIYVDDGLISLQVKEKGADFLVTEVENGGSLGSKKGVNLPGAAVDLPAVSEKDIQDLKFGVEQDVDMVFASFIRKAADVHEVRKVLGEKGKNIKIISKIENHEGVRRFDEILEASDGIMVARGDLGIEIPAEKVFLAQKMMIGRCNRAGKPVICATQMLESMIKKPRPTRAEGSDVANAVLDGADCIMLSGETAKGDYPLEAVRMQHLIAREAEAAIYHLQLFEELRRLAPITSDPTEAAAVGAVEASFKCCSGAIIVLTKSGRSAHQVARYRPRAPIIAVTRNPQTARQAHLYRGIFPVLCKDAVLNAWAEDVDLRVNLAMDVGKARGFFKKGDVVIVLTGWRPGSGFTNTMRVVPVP

Target: T1, cluster of differentiation 74 (CD74) (mouse (endogenous in peritoneal macrophages)) (UniProt P04441)
T1 sequence: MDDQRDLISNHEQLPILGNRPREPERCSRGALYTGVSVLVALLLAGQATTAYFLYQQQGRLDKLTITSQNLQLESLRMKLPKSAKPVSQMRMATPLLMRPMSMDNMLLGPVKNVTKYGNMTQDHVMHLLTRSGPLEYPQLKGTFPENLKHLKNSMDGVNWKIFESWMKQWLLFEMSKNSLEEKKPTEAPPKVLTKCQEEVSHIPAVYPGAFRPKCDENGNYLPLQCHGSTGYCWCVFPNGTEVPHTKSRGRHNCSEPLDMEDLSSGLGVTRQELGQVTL
Assay: co-IP; endogenous proteins in peritoneal macrophages; which protein was precipitated is not told

binding: binds
Substance: pyruvate kinase M2 (PKM2) (from UniProt P52480 1-531) (enzyme)
